Reference: publication PMC5897412
No constants are given. Whether binding was seen depends on the method and setting. Binding seen in cells or lysates may run through a third protein. These calls come from enrichment with a bait or labelling near it, and not all partners need be listed.

Molecular target: tetraspanin 15 (TSPAN15) (human (endogenous in KYSE30)), O95858
Assay: affinity purification with mass spectrometry; anti-TSPAN15 antibody incubated with protein extracts from KYSE30 cells, protein A/G agarose beads; band specific against IgG control excised from the gel and identified by mass spectrometry
Settings: remark: other sources report otherwise

binding: binds
B1: beta-transducin repeat containing E3 ubiquitin protein ligase (BTRC), Q9Y297 1-605 (protein)
chain: MDPAEAVLQEKALKFMCSMPRSLWLGCSSLADSMPSLRCLYNPGTGALTAFQNSSEREDCNNGEPPRKIIPEKNSLRQTYNSCARLCLNQETVCLASTAMKTENCVAKTKLANGTSSMIVPKQRKLSASYEKEKELCVKYFEQWSESDQVEFVEHLISQMCHYQHGHINSYLKPMLQRDFITALPARGLDHIAENILSYLDAKSLCAAELVCKEWYRVTSDGMLWKKLIERMVRTDSLWRGLAERRGWGQYLFKNKPPDGNAPPNSFYRALYPKIIQDIETIESNWRCGRHSLQRIHCRSETSKGVYCLQYDDQKIVSGLRDNTIKIWDKNTLECKRILTGHTGSVLCLQYDERVIITGSSDSTVRVWDVNTGEMLNTLIHHCEAVLHLRFNNGMMVTCSKDRSIAVWDMASPTDITLRRVLVGHRAAVNVVDFDDKYIVSASGDRTIKVWNTSTCEFVRTLNGHKRGIACLQYRDRLVVSGSSDNTIRLWDIECGACLRVLEGHEELVRCIRFDNKRIVSGAYDGKIKVWDLVAALDPRAPAGTLCLRTLVEHSGRVFRLQFDEFQIVSSSHDDTILIWDFLNDPAAQAEPPRSPSRTYTYISR
